From doi:10.1101/2022.03.15.484308

Tests used:
[1] = target: T1, amphiphysin 1 (Amph1) (rat (endogenous in adult rat brain)) (UniProt O08838); assay: co-IP
T1 sequence: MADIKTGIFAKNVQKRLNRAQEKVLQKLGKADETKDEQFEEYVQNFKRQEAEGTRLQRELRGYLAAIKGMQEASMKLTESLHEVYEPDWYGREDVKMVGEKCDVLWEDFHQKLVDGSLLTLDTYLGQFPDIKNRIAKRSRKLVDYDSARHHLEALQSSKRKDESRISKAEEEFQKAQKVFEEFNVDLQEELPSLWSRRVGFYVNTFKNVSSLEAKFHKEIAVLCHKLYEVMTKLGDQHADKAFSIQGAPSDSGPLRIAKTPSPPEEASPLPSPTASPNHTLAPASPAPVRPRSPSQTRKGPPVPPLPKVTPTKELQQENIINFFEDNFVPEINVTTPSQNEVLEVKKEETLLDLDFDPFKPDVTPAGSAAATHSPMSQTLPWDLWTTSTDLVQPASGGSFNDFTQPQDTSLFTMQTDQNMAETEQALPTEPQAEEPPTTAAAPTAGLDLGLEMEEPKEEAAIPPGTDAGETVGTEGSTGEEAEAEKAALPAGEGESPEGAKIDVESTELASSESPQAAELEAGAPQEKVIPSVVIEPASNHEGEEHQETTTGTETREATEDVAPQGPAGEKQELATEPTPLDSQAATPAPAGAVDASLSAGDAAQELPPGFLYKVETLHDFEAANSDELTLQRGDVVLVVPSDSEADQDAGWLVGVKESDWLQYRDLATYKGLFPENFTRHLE

[2] = target: Cyclin-dependent kinase-like 5 (CDKL5) (rat (endogenous in adult rat brain)); assay: co-IP

Cyclin-dependent kinase-like 5 (CDKL5) (rat (endogenous in adult rat brain))
binding [1]: binds

B1: amphiphysin 1 (Amph1) (protein, UniProt O08838 1-683)
chain: MADIKTGIFAKNVQKRLNRAQEKVLQKLGKADETKDEQFEEYVQNFKRQEAEGTRLQRELRGYLAAIKGMQEASMKLTESLHEVYEPDWYGREDVKMVGEKCDVLWEDFHQKLVDGSLLTLDTYLGQFPDIKNRIAKRSRKLVDYDSARHHLEALQSSKRKDESRISKAEEEFQKAQKVFEEFNVDLQEELPSLWSRRVGFYVNTFKNVSSLEAKFHKEIAVLCHKLYEVMTKLGDQHADKAFSIQGAPSDSGPLRIAKTPSPPEEASPLPSPTASPNHTLAPASPAPVRPRSPSQTRKGPPVPPLPKVTPTKELQQENIINFFEDNFVPEINVTTPSQNEVLEVKKEETLLDLDFDPFKPDVTPAGSAAATHSPMSQTLPWDLWTTSTDLVQPASGGSFNDFTQPQDTSLFTMQTDQNMAETEQALPTEPQAEEPPTTAAAPTAGLDLGLEMEEPKEEAAIPPGTDAGETVGTEGSTGEEAEAEKAALPAGEGESPEGAKIDVESTELASSESPQAAELEAGAPQEKVIPSVVIEPASNHEGEEHQETTTGTETREATEDVAPQGPAGEKQELATEPTPLDSQAATPAPAGAVDASLSAGDAAQELPPGFLYKVETLHDFEAANSDELTLQRGDVVLVVPSDSEADQDAGWLVGVKESDWLQYRDLATYKGLFPENFTRHLE
binding [2]: binds

Results are given in words; binding and its absence hold for the method and conditions named. Binding seen in cells or lysates may run through a third protein. Binding calls can cover weak binding; strength is not graded here.
